These are yes or no findings as the source states them, for the method shown. Each block holds one binder with its values, some of them ahead of it.
Tests used:
[1] = target: human acyl protein thioesterase 1 (APT1), wildtype (human), O75608; experiment: SEC-MALS; details: remark: other sources report otherwise
[2] = target: human acyl protein thioesterase 2 (APT2, LYPLA2), wildtype (human), O95372; experiment: SEC-MALS; details: remark: other sources report otherwise

binding [1]: no binding (tested: 40 μM)
B1: human acyl protein thioesterase 1 (APT1), wildtype, O75608 1-230 (enzyme)
chain: MCGNNMSTPLPAIVPAARKATAAVIFLHGLGDTGHGWAEAFAGIRSSHIKYICPHAPVRPVTLNMNVAMPSWFDIIGLSPDSQEDESGIKQAAENIKALIDQEVKNGIPSNRIILGGFSQGGALSLYTALTTQQKLAGVTALSCWLPLRASFPQGPIGGANRDISILQCHGDCDPLVPLMFGSLTVEKLKTLVNPANVTFKTYEGMMHSSCQQEMMDVKQFIDKLLPPID

binding [2]: no binding (tested: 40 μM)
B2: human acyl protein thioesterase 2 (APT2, LYPLA2), wildtype, O95372 1-231 (enzyme)
chain: MCGNTMSVPLLTDAATVSGAERETAAVIFLHGLGDTGHSWADALSTIRLPHVKYICPHAPRIPVTLNMKMVMPSWFDLMGLSPDAPEDEAGIKKAAENIKALIEHEMKNGIPANRIVLGGFSQGGALSLYTALTCPHPLAGIVALSCWLPLHRAFPQAANGSAKDLAILQCHGELDPMVPVRFGALTAEKLRSVVTPARVQFKTYPGVMHSSCPQEMAAVKEFLEKLLPPV
